The values below come from patent publication US20020037516.

A weaker result is weaker than the reference pair of the same experiment.

In the data set the target is TSR thiostrepton resistance methyltransferase (tsr) (Streptomyces azureus) (UniProt P18644). Description: binding assay. As to conditions: weak methylation substrate; purified recombinant protein; variant of LHL 29-mer of E. coli mGAR.

Take “GGGCUUAGAAGCAGCCU [LHL 17-mer of E. coli mGAR]”: the binding result is reported as “binds more weakly”.
